The results in this text go back to article PMC8027380.

Protein sequences, listed by entry. Tags and fused reporters are not part of them. Residues count along the entry.
UniProt Q9UJA3: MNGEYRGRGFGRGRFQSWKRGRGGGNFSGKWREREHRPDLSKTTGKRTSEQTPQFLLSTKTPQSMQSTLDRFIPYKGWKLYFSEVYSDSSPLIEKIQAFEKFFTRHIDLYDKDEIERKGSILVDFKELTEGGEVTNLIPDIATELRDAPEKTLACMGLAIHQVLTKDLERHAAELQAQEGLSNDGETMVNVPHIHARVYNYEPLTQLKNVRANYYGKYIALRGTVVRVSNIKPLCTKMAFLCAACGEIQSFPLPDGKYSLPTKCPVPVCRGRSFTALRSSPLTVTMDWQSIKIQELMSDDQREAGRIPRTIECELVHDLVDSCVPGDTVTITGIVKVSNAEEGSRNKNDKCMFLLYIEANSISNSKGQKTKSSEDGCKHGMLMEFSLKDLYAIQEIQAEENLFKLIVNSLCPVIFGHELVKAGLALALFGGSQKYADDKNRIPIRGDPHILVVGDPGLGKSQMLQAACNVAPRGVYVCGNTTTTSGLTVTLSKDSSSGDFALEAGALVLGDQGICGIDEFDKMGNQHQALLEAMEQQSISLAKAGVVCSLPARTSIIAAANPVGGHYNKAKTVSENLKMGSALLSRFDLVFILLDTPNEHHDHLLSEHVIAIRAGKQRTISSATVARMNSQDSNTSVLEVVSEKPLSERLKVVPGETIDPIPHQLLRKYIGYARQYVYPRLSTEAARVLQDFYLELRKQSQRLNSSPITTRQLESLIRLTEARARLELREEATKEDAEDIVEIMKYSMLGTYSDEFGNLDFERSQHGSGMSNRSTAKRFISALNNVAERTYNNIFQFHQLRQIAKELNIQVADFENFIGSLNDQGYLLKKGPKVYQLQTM
UniProt P29279, residues 27-349: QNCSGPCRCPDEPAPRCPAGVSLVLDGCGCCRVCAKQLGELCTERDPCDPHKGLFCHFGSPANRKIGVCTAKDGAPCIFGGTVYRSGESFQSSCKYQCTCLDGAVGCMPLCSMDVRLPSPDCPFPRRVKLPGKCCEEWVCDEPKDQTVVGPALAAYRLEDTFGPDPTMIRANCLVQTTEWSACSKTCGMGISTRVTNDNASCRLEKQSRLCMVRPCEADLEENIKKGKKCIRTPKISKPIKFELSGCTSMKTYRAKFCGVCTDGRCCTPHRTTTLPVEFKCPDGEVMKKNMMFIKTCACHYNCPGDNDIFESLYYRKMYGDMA

No constants are given. Whether binding was seen depends on the method and setting. In cells and extracts the contact can be indirect. Some entries that bind do so weakly or less than the wild type.

The target in this assay is Flag tagged MCM8 (UniProt Q9UJA3). Put plainly: co-IP; 1.0 mg protein of MNNG/HOS lysate (Control or MCM8-Flag lentivirus) incubated with antibody at 4 °C overnight, then 20 μL beads at 4 °C for 2 h; precipitated with Flag antibody, blotted with CTGF antibody.

Take “connective tissue growth factor (CTGF) (from UniProt P29279 27-349)”: the binding result is reported as “binds”.
